Here are results for 27 molecules from PubChem BioAssay AID296 (DTP/NCI, 2004).

The assay deals with MX-1 breast xenograft, nude mice, tumor weight T/C. In words: NCI In Vivo Anticancer Drug Screen. Data for tumor model Human Mammary Carcinoma MX-1 Xenograft (intrarenal inoculation) in NU/NU Swiss (nude) mice. To be noted: T/C endpoint: mean tumor weight change, higher T/C = larger tumour; for T/C: evaluated on day 11. A digest of the protocol: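 Compound dosed to mice with transplantable tumor; vehicle group as control. Endpoint survival or tumour size, reported as T/C.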

Setting [1] is: dose: 100.0 mg/kg/injection, schedule: Q01DX010 (sc), vehicle: Klucel (hydroxypropylcellulose) (HPC).
Setting [2] is: dose: 400.0 mg/kg/injection, schedule: Q01DX010 (sc), vehicle: saline.
[3] abbreviates: dose: 1.0 mg/kg/injection, schedule: Q01DX010 (sc), vehicle: water.
[4] abbreviates: dose: 2.0 mg/kg/injection, schedule: Q01DX010 (sc), vehicle: water.
Where [5] appears, read: dose: 4.0 mg/kg/injection, schedule: Q01DX010 (sc), vehicle: water.
[6] abbreviates: dose: 150.0 mg/kg/injection, schedule: Q04DX003 (sc), vehicle: saline with Tween-80.
[7] abbreviates: dose: 300.0 mg/kg/injection, schedule: Q04DX003 (sc), vehicle: saline with Tween-80.

The list does not hold the whole screen: it is rich in T/C values a quarter to a half above the control, in often repeated tests (any T/C) and in doses without a T/C. Other doses and runs of a compound stand elsewhere. T/C gives the treated animals as a percentage of the vehicle group. Schedules are NCI's codes, read here as Q, the interval in days (D) or hours (H), X, the number of doses. Some values lie below zero, which means that the treated tumours became smaller. Some T/C values are followed by the survivors on the day toxicity was checked, most often the fifth; without a count, all were alive then. Some entries hold several experiments; the results are listed from low to high. Counts like (3×) say how often a value occurs here. Some entries give survivors of the animals treated and no T/C: the source files T/C as zero there, which appears to mark a toxic dose or a test without result, not a measured value. Survivors were counted at the toxicity check, usually on the fifth day, unless a day is given; later deaths do not show.

Turning to `CCCCCC(O)C1C(=O)OC(C)C(O)/C=C/C=C/C=C/C=C\C=C(\C)C(O)CC(O)CC(O)CC(O)CC(O)CC(O)CC1O` (configuration not stated), the T/C (dose: 150.0 mg/kg/injection, schedule: Q04DX003 (sc), vehicle: distilled water + alcohol) was 131 % of control. Take `CCCC(=O)OCc1cc(=O)n(C)c2c3c4c(cc12)c(C)cc(=O)n4CO3`: the T/C under setting [1] was 137 % of control. For the molecule `Cn1ccc(=Nc2ccc(NC(=O)c3ccc(N=c4ccn(C)c5ccc([N+](=O)[O-])cc45)cc3[N+](=O)[O-])cc2)cc1`, for the setting “dose: 600.0 mg/kg/injection, schedule: Q04DX003 (sc), vehicle: saline + Tween-80 + alcohol”, the T/C was 146 % of control. With `CCCCOCN(COCCCC)C(C)Cc1ccccc1` (configuration not stated), under “dose: 1600.0 mg/kg/injection, schedule: Q04DX003 (sc), vehicle: saline with Tween-80”, the survivor count is given as 1 of 6 on day 11. In the case of `Nc1nc(F)nc2c1ncn2C1OC(COP(=O)(O)O)C(O)C1O` (configuration not stated), the survivor count under setting [2] is on record as 0 of 3 on day 11. Turning to `CCO/C=C1\SC(=S)N(c2ccccc2C)C1=O`, under “dose: 400.0 mg/kg/injection, schedule: Q01DX010 (sc), vehicle: saline with Tween-80”, the T/C is 139 % of control. With `O=C1c2cccc3cc([N+](=O)[O-])cc(c23)C(=O)N1CCN1CCCC1`, the survivor count (dose: 144.0 mg/kg/injection, schedule: Q04DX003 (sc), vehicle: saline with Tween-80) is listed as 1 of 6 on day 11. As for `S=P(N1CC1)(N1CC1)N1CC1`, the survivor count (dose: 4.0 mg/kg/injection, schedule: Q01DX010 (sc), vehicle: saline) is listed as 0 of 3 on day 11; the survivor count (dose: 8.0 mg/kg/injection, schedule: Q01DX010 (sc), vehicle: saline) was 0 of 3 on day 11 and 0 of 6 on day 11. Regarding `C=C(C)[C@H]1CN[C@H](C(=O)O)[C@H]1CC(=O)O`, the survivor count runs as follows: (dose: 80.0 mg/kg/injection, schedule: Q04DX003 (sc), vehicle: suspension in saline) 1 of 6 on day 11; (dose: 160.0 mg/kg/injection, schedule: Q04DX003 (sc), vehicle: suspension in saline) 0 of 6 on day 11. Take `CCOC(=O)c1ccc(NC(=O)Nc2nccs2)cc1`: the survivor count (dose: 50.0 mg/kg/injection, schedule: Q01DX010 (sc), vehicle: saline with Tween-80) is listed as 1 of 3 on day 11. Further, the T/C runs as follows: (dose: 200.0 mg/kg/injection, schedule: Q01DX010 (sc), vehicle: saline with Tween-80) 126 % of control; (dose: 800.0 mg/kg/injection, schedule: Q01DX010 (sc), vehicle: saline with Tween-80) 134 % of control. `CC(C)NC(=O)OCc1c(COC(=O)NC(C)C)c(-c2ccc(Cl)c(Cl)c2)n2c1CCC2`: the T/C by setting is: (dose: 100.0 mg/kg/injection, schedule: Q01DX010 (sc), vehicle: distilled water + Tween-80) 9, 33, 44 [5 of 6 alive on day 11], 60 % of control; (dose: 200.0 mg/kg/injection, schedule: Q01DX010 (sc), vehicle: distilled water + Tween-80) 11, 13, 25, 72 % of control. For the molecule `COc1cccc2c1C(=O)c1c(O)c3c(c(O)c1C2=O)C[C@@](O)(C(=O)CO)C[C@@H]3OC1CC(N)C(O)C(C)O1` (some centres not stated), the T/C is, setting by setting: (dose: 0.5 mg/kg/injection, schedule: Q01DX010 (sc), vehicle: water) 3, 20 [2 of 2 alive on day 11], 37, 58 [2 of 3 alive on day 11], 97, 103, 106 [2 of 3 alive on day 11], 133, 165, 204 % of control [2 of 3 alive on day 11]; under setting [3], -52, 31, 47, 61, 70 [2 of 3 alive on day 11], 88, 89, 98 [2 of 3 alive on day 11], 114, 166, 228 % of control; under setting [4], -62, -21 [2 of 3 alive on day 11], 9, 10 [2 of 3 alive on day 11], 18, 24, 25, 26, 44, 50 [2 of 2 alive on day 11], 55, 56, 74, 82, 96, 112, 171 % of control; under setting [5], -62 [2 of 3 alive on day 11], -39, -31, 1, 2 [2 of 3 alive on day 11], 3, 5 [2 of 2 alive on day 11], 6 (2×), 13, 17 [2 of 3 alive on day 11], 26, 30, 56, 144 % of control. For the same molecule, the survivor count reads like this: under setting [3], 1 of 2 on day 11; (dose: 2.0 mg/kg/injection, schedule: Q01DX010 (ip), vehicle: water) 0 of 3 on day 11; under setting [4], 0 of 3 on day 11; (dose: 4.0 mg/kg/injection, schedule: Q01DX010 (ip), vehicle: water) 0 of 3 on day 11; under setting [5], 0 of 2 on day 11 and 1 of 3 on day 11; (dose: 12.0 mg/kg/injection, schedule: Q01DX010 (sc), vehicle: water) 1 of 3 on day 11.

Consider `CC12CCC3C(CCC4CC(OC(=O)Cc5ccc(N(CCCl)CCCl)cc5)CCC43C)C1CCC(=O)N2` (configuration not stated), for which the survivor count reads like this: (dose: 200.0 mg/kg/injection, schedule: Q04DX003 (sc), vehicle: saline with Tween-80) 3 of 6 on day 11; (dose: 400.0 mg/kg/injection, schedule: Q04DX003 (sc), vehicle: saline with Tween-80) 0 of 6 on day 11 and 3 of 6 on day 11. On to `COC1=NCN=C2SC=C(N)N=C12`, for which, where the note is “dose: 300.0 mg/kg/injection, schedule: Q04DX003 (sc), vehicle: suspension in saline”, the survivor count is recorded as 0 of 5 on day 11. Regarding `C[CH2][Ge]([CH2]C)[CH2]C.C[CH2][Ge]([CH2]C)[CH2]C.C[CH2][Ge]([CH2]C)[O][Ge]([CH2]C)[CH2]C`, the survivor count runs as follows: (dose: 600.0 mg/kg/injection, schedule: Q04DX003 (sc), vehicle: saline with Tween-80) 2 of 6 on day 11; (dose: 1200.0 mg/kg/injection, schedule: Q04DX003 (sc), vehicle: saline with Tween-80) 0 of 5 on day 11. Regarding `C1CN2CN3CCN(CN1C3)C2`, the survivor count is on record as 0 of 3 on day 11 under setting [2] and 0 of 3 on day 11 (dose: 800.0 mg/kg/injection, schedule: Q01DX010 (sc), vehicle: saline). On to `CN(Cc1cnc2nc(N)nc(N)c2n1)c1c(Cl)cc(C(=O)NC(CCC(=O)O)C(=O)O)cc1Cl` (configuration not stated), for which, under setting [1], the survivor count is given as 1 of 3 on day 11. Consider `Nc1nc(N)c2c(ccc3c2ccn3Cc2cccc([N+](=O)[O-])c2)n1`, for which the survivor count under setting [6] was 1 of 6 on day 11 and the survivor count under setting [7] is reported as 2 of 6 on day 11.

As to `NCCCNCCSP(=O)(O)O`, under “dose: 800.0 mg/kg/injection, schedule: Q04DX003 (sc), vehicle: saline”, the survivor count is reported as 0 of 6 on day 11.

As to `C/C=C(\C)c1cc(=O)c2c(C)cc3c(c2o1)C(=O)c1c(O)c(C2CC(C)(N(C)C)C(O)C(C)O2)cc(C2CC(N(C)C)C(O)C(C)O2)c1C3=O` (configuration not stated), where the note is “dose: 16.0 mg/kg/injection, schedule: Q04DX003 (sc), vehicle: saline”, the survivor count was 0 of 6 on day 11. `c1cc2n(n1)CCN2`: under setting [2], the survivor count is 0 of 3 on day 11 and 0 of 6 on day 11. Take `CC(C)NC(=O)N(CCCCBr)N=O`: the survivor count (dose: 300.0 mg/kg/injection, schedule: Q04DX003 (sc), vehicle: Klucel (hydroxypropylcellulose) (HPC)) is 1 of 4 on day 11.

Take `C1OCN2CSCC12` (configuration not stated): the survivor count (dose: 800.0 mg/kg/injection, schedule: Q04DX003 (sc), vehicle: saline with Tween-80) is recorded as 2 of 6 on day 11. For the molecule `OC1CCCC2CCCNC12` (configuration not stated), the survivor count reads like this: under setting [6], 1 of 6 on day 11; under setting [7], 0 of 6 on day 11.

With `CCCCNCCCNCCCNC(=O)c1csc(-c2csc(CCNC(=O)C(NC(=O)C(C)C(O)C(C)NC(=O)C(NC(=O)c3nc(C(CC(N)=O)NCC(N)C(N)=O)nc(N)c3C)C(OC3OC(CO)C(O)C(O)C3OC3OC(CO)C(O)C(OC(N)=O)C3O)c3cnc[nH]3)C(C)O)n2)n1` (configuration not stated), where the note is “dose: 64.0 mg/kg/injection, schedule: Q01DX010 (sc), vehicle: saline”, the survivor count was 0 of 3 on day 11.

In the case of `Cc1cccc(OCC(O)CN2CC2)c1` (configuration not stated), the survivor count (dose: 400.0 mg/kg/injection, schedule: Q04DX003 (ip), vehicle: saline with Tween-80) is given as 0 of 6 on day 11. `Cc1ccc2nc(-c3ccc4nc(-c5ccc(N=Nc6ccc(-c7nc8ccc(-c9nc%10ccc(C)c(S(=O)(=O)O)c%10s9)cc8s7)cc6)cc5)sc4c3)sc2c1S(=O)(=O)O`: the T/C (dose: 800.0 mg/kg/injection, schedule: Q04DX003 (sc), vehicle: suspension in saline) is 137 % of control [4 of 6 alive on day 11]. Also, the survivor count (dose: 1600.0 mg/kg/injection, schedule: Q04DX003 (sc), vehicle: suspension in saline) is listed as 2 of 6 on day 11.
